From patent publication US7429474B2, “2-O sulfatase compositions and methods of analyzing therewith” (Massachusetts Institute of Technology, priority 2003, dated 2008)
Some entries share one result that the patent states for a list of compounds. At least one structure is not confirmed: it was looked up by name or label, or the drawing left a doubt.

Test system: 2-O sulfatase
Test: desulfation of 2-O sulfated chondroitin disaccharides under extended and exhaustive conditions
Type: biochemical, F. heparinum
Settings: 18 hour incubation at 30° C., 5 mM substrate, 5 μM enzyme

For `CC(=O)N[C@H]1C(O)O[C@H](CO)[C@H](OS(=O)(=O)O)[C@@H]1O[C@@H]1OC(C(=O)O)=C[C@H](O)[C@H]1OS(=O)(=O)O` (stereo partly shown) [ΔU2SGalNAc,4S], which “desulfated at the 2-O position under exhaustive conditions” value is on record?
Its value is “greater than 95%”.
